# Measurements published in PubChem BioAssay AID504834 (National Center for Advancing Translational Sciences (NCATS), 2011).
# About 22,000 (6.9%) of roughly 320,000 compounds were called active. The shares of active, inactive and inconclusive entries below differ from those in the screen. The call rests on the fitted dose curve; in most records, active means well fitted inhibition curve with a large enough effect; inconclusive means small, poorly fitted or top-dose-only effect, or another doubt; inactive means no such curve, though single readings can be large or run the other way. Potencies beside an inconclusive call are fits to weak or partial responses and may not hold up.
# Assay: Primary qHTS for delayed death inhibitors of the malarial parasite plastid, 96 hour incubation
# Conditions: P. falciparum luciferase reporter growth; series mostly up to 28.7 µM
# Summary of the method: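 96 h incubation, 37 C, 5% CO2, of luciferase-reporter P. falciparum-infected RBCs (2% hematocrit, 0.05% parasitemia final) with test compounds; endpoint luminescence.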
# On the % scale 0 is the no-effect control and ±100 the full control effect; potency means the concentration at half of the fitted maximal effect.
SMILES,Potency,"activity change, negative = inhibition"
Cc1cccc(C(=O)NCC(=O)NC(C)c2ccc(-n3ccnc3)cc2)c1 (stereo not given),inactive,
O=C(Cc1c(O)c2ccccc2[nH]c1=O)NCc1ccc(F)cc1,"inconclusive: 1.85 µM [inhibitor, full curve, poor fit]",
COc1cc(F)ccc1S(=O)(=O)n1c(C)nc2ccccc21,"inconclusive: 11.7 µM [inhibitor, partial curve, poor fit]",
Cc1cc(NC(=O)CCC(=O)N(c2ccccc2)C(C(=O)NC2CCCC2)c2ccccc2)no1 (stereo not given),active: 8.28 µM,
Cc1nc2ccc(S(=O)(=O)NCC(=O)N3CCN(c4ccccc4)CC3)cc2s1,"inconclusive: 4.65 µM [inhibitor, partial curve]",
COCCOC1CCN(C(=O)C2CCC(=O)N(CCc3ccccc3)C2)CC1 (stereo not given),inactive,
CC(C)c1ccc(NC2CCCN(C(=O)C3=NN(C)C(=O)CC3)C2)cc1 (stereo not given),"inconclusive: 18.5 µM [inhibitor, single point]",
COc1ccc(-n2nc(C(=O)N3CCCCC3)c(C)c(C#N)c2=O)cc1,inactive,
c1ccc(-n2nnnc2NCCc2c[nH]c3ccccc23)cc1,"inconclusive: 5.22 µM [inhibitor, partial curve, poor fit]",
COc1ccc(OCC(=O)Nc2ccc(S(=O)(=O)N3CCOCC3)cc2)cc1,"inconclusive: 0.928 µM [inhibitor, partial curve, poor fit]",
COc1ccc(CCN2CC(C(=O)NCCN3CCCC3=O)CCC2=O)cc1 (stereo not given),inactive,
CCOc1cc(/C=N/NC(=O)c2cccnc2)cc(Br)c1OCC(N)=O,inactive,
CCC(C)(C)NC(=O)C(c1cccn1C)N(C(=O)Cn1nnc2ccccc21)c1ccc(F)cc1 (stereo not given),"inconclusive: 11.7 µM [inhibitor, single point]",
CCN(CC)C(=O)c1ccc(NC(=S)NC(=O)CCc2ccccc2)cc1,inactive,
COc1ccc(C2=NN(C(=O)CN3CCCCC3)C(c3ccc(OC)cc3)C2)cc1 (stereo not given),"inconclusive: 13.1 µM [inhibitor, single point]",
Cc1nn(C)c(C)c1-c1c(C#N)c(N)nc2c1CCCCCC2,"inconclusive: 1.85 µM [inhibitor, full curve]",
CNC(=S)N/N=C/c1ccc(OCC(=O)Nc2c(C)cc(C)cc2C)c(OC)c1,"inconclusive: 16.5 µM [inhibitor, single point]",
COCCn1c(=O)[nH]c2cc(C(=O)NCCCN3CCN(c4ccc(F)cc4)CC3)ccc2c1=O,"inconclusive: 5.86 µM [inhibitor, partial curve]",
CNC1(C)C2CCC(C2)C1(C)C (stereo not given),active: 6.01 µM,
CCOc1ccc(C(=O)NC2CC3CCCC(C2)N3CC(C)C)cc1 (stereo not given),"inconclusive: 0.262 µM [inhibitor, full curve, poor fit]",
NC(=O)C1(N2CCCCC2)CCN(CCCC(=O)c2ccc(F)cc2)CC1,"inconclusive: 15.1 µM [inhibitor, single point]",
Cc1ccc(C(=O)Cn2nc(C(=O)O)c3ccccc3c2=O)cc1C,inactive,
COc1ccc2o/c(=N/NC(=O)c3cccs3)c(C(N)=O)cc2c1,"inconclusive: 11.7 µM [inhibitor, single point]",

# Shown tab-delimited: entries from further up.
SMILES	Potency	activity change, negative = inhibition
Cc1cccc(C(=O)NCC(=O)NC(C)c2ccc(-n3ccnc3)cc2)c1 (stereo not given)	inactive	
O=C(Cc1c(O)c2ccccc2[nH]c1=O)NCc1ccc(F)cc1	inconclusive: 1.85 µM [inhibitor, full curve, poor fit]	
COc1cc(F)ccc1S(=O)(=O)n1c(C)nc2ccccc21	inconclusive: 11.7 µM [inhibitor, partial curve, poor fit]	
Cc1cc(NC(=O)CCC(=O)N(c2ccccc2)C(C(=O)NC2CCCC2)c2ccccc2)no1 (stereo not given)	active: 8.28 µM	

# The listing continues.

SMILES,Potency,"activity change, negative = inhibition"
CC(=O)Nc1ccc(-c2csc(NC(=O)C3CC(=O)N(c4ccc5c(c4)OCCO5)C3)n2)cc1 (stereo not given),"inconclusive: 3.7 µM [inhibitor, partial curve]",
CCC(C)Nc1ncnc2c1cnn2Cc1ccc(Cl)cc1 (stereo not given),"inconclusive: 6.57 µM [inhibitor, partial curve, poor fit]",
COCCNC(=S)N(CCN(C)C)Cc1cc2cc3c(cc2[nH]c1=O)OCO3,"inconclusive: 18.5 µM [inhibitor, single point]",
CCOc1ccccc1C(=O)N(C)CC(=O)Nc1ccc(OC)cc1,inactive,
O=C(Nc1ccccc1)Nc1cccc(-c2nnco2)c1,inactive,
CCOC(=O)c1ccc(NC(=O)C2CCN(S(=O)(=O)CC)CC2)cc1,"inconclusive: 5.86 µM [inhibitor, single point]",
CC(NC(=O)c1ccccc1F)c1ccccc1 (stereo not given),"inconclusive: 2.94 µM [inhibitor, single point]",
Cc1nc2ccccn2c1C(=O)NNC(=O)Nc1cccc(C(F)(F)F)c1,inactive,
COc1cc2[nH]c(=S)n(CCN3CCCCC3C)c(=O)c2cc1OC (stereo not given),"inconclusive: 0.165 µM [inhibitor, full curve, poor fit]",
Cc1ccc(CN(C)c2nc(-c3cccnc3)nc3ccccc23)o1,active: 11.7 µM,
COc1ccc(C2CC(=O)Nc3cc(OC)c(OC)cc32)cc1Br (stereo not given),"inconclusive: 18.5 µM [inhibitor, single point]",
CCOc1ccc(NC(=O)CN(C)C(=O)c2ccccc2SCC(=O)N2CCCC2)cc1OCC,"inconclusive: 18.5 µM [inhibitor, single point]",
COC(=O)CN(c1ccc(OC)c(OC)c1)S(C)(=O)=O,"inconclusive: 10.4 µM [inhibitor, partial curve, poor fit]",
Nc1cc(=O)[nH]c(SCCSc2ccccc2)n1,inactive,
CC12CCC(C(=O)NCc3ccc(Cl)cc3)(OC1=O)C2(C)C (stereo not given),"inconclusive: 0.0041 µM [inhibitor, full curve]",
COc1ccc(NC(=O)[C@H](C)NC(=O)C2CCN(S(=O)(=O)c3ccc(OC)cc3)CC2)cc1,inactive,
O=S(=O)(c1ccc(-c2cn3ccccc3n2)cc1)N1CCOCC1,inactive,
O=C(CSc1nnc(-c2ccncc2)s1)Nc1ccc(Cl)c(C(=O)O)c1,inactive,
CCc1nc(Nc2ccc3nccnc3c2)c2oc3ccccc3c2n1,"inconclusive: 18.5 µM [inhibitor, single point]",
Cc1cc(C)nc(SCC(=O)Nc2ncc3c(n2)CC(C)(C)CC3=O)n1,"inconclusive: 11.7 µM [inhibitor, partial curve, poor fit]",
COc1cc([N+](=O)[O-])ccc1NC(=O)C[n+]1cccc(C(C)=O)c1,,inactive: 33.3% [at 5.75 µM]
CN(NC(=O)/C=C/C(=O)O)c1ncc(C(F)(F)F)cc1Cl,inactive,
